Experiment [1] addresses T1, HA-SMEK1 (Suppressor of Mek1) (human) (UniProt Q6IN85).
T1 sequence: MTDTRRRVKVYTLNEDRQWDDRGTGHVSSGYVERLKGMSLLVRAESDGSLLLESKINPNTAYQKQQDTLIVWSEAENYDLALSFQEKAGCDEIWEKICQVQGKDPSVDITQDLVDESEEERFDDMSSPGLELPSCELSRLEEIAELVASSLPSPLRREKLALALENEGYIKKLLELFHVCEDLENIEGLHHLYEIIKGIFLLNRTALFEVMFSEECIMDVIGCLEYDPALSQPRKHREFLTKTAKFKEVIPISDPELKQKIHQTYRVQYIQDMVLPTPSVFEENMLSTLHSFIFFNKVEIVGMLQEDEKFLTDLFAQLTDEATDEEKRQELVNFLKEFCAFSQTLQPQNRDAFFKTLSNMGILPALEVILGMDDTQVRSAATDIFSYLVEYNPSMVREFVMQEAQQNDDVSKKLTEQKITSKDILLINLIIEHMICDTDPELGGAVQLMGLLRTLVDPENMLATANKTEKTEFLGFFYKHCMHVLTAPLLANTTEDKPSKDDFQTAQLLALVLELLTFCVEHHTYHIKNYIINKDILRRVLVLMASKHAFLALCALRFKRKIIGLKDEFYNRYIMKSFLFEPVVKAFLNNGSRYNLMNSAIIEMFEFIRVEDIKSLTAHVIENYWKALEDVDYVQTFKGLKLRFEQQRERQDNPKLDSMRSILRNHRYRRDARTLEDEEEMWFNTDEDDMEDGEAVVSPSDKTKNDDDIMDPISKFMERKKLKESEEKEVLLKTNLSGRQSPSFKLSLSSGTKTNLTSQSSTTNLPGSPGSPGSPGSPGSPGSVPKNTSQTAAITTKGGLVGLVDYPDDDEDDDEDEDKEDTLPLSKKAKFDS
In words: co-IP; HEK 293T cells co-transfected; lysed in cold IP lysis buffer by ultrasonography; extracts incubated with primary antibodies and Dynabeads Protein G at 4 °C for 3 h; immunoblot; which antibody precipitated is not told.

The chains behind the UniProt entries cited, without tags or fusion partners.
UniProt O00139: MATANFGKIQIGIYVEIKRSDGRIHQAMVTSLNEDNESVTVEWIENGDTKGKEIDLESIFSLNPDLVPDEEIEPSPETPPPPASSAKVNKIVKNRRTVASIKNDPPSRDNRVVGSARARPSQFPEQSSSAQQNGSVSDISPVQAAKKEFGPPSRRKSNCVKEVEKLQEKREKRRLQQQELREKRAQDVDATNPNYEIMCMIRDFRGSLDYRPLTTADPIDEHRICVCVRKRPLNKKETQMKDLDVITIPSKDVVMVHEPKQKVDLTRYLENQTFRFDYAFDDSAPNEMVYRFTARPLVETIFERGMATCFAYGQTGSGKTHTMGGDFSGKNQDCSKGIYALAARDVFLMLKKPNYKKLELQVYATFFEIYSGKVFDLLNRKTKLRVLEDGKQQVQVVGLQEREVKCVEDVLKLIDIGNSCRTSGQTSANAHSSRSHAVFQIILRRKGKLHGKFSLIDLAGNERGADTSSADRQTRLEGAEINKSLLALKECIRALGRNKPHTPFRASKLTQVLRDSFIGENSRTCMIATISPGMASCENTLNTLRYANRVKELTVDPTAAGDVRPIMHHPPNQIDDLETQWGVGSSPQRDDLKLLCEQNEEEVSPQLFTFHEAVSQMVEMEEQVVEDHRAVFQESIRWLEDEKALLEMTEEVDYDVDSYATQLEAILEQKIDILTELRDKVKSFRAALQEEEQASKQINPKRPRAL

The target in experiment [2] is T1, HA-SMEK1 (Suppressor of Mek1) (human). The experiment can be described thus: proximity ligation; Duolink in situ proximity ligation assay of Myc-KIF2A and HA-SMEK1 in the HEK 293T cell line.

These are yes or no findings as the source states them, for the method shown. Binding seen in cells or lysates may run through a third protein. Some entries that bind do so weakly or less than the wild type. Sequences can lack the tags named with a protein.

Regarding “Myc-KIF2A (kinesin family member 2A) (from UniProt O00139 1-706)”, the binding entry in experiment [1] and in experiment [2] was “binds” each time.

Values taken from PMC11516166.
